Data from patent publication US4399125A (priority 1981, dated 1983).

Test: general procedure: Boc solid-phase peptide synthesis; Boc-Gly-resin; p-nitrophenyl ester with hydroxybenzotriazole
Conditions: for isolated yield / crude mass / isolated mass: whole synthesis

With “β-(S-Benzylmercapto)-β,β-cyclopentamethylenepropionyl-Tyr(Bzl)-Phe-Gln-Asn-Cys(Bzl)-Pro-Arg(Tos)-Gly-NH2” the isolated yield (based on initial Gly content on the resin, scale 0.5 mmol) was 62.4%, the crude mass (scale 0.5 mmol) was 723 mg and the isolated mass (scale 0.5 mmol) was 488 mg.

With “β-(S-Benzylmercapto)-β,β-cyclopentamethylenepropionyl-Tyr(Me)-Phe-Gln-Asn-Cys(Bzl)-Pro-Arg(Tos)-Gly-NH2” the step yield (coupling step) was 77.3%, the isolated yield (based upon initial glycine content of the resin, scale 0.4 mmol) was 50.7% and the crude mass (scale 0.4 mmol) was 410 mg. For the same substance, the isolated mass (scale 0.4 mmol) was 302 mg.
